Out of some 320,000 compounds screened, about 22,000 (6.9%) were called active. This list was built around the results that the source calls inconclusive (neither active nor inactive); the mix of calls is not that of the screen. The call rests on the fitted dose curve; in most records, active means well fitted inhibition curve with a large enough effect; inconclusive means small, poorly fitted or top-dose-only effect, or another doubt; inactive means no such curve, though single readings can be large or run the other way. A potency beside an inconclusive call is a rough fit, not a confirmed value.
Test: Primary qHTS for delayed death inhibitors of the malarial parasite plastid, 96 hour incubation
Details: P. falciparum luciferase reporter growth; series mostly up to 28.7 µM; activity change, negative = inhibition: at the top concentration
Outline: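 Infected RBCs, 2% Hct / 0.05% parasitemia final; luciferase-reporter P. falciparum; cpd 96 h, 37 C, 5% CO2; luciferase detection reagent; luminescence.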
On the % scale 0 is the no-effect control and ±100 the full control effect; potency means the concentration at half of the fitted maximal effect.

Question: With `CN1CCN(C2CC(=O)N(Cc3ccc(N4CCCC4=O)cc3)C2=O)CC1` (stereo unspecified) as the molecule, how does the “activity change, negative = inhibition” value read?
Answer: The value was inactive: 30%.

Question: Which Potency does the source give for `NC1CCCCC1N=Cc1c(O)n(Cc2ccc(F)cc2)c(=O)[nH]c1=O` (stereo unspecified) here?
Answer: Its Potency is inconclusive: 18.5 µM [inhibitor, single point].

Question: For `COC(=O)c1ccc(COc2ccccc2/C=N/O)o1`, which “activity change, negative = inhibition” value is on record?
Answer: The value was inactive: 124%.

Question: For `Nn1c(SCC(=O)Nc2ccc(F)cc2)nnc1-c1ccccn1`, which “activity change, negative = inhibition” value is on record?
Answer: Its value is inactive: -9.18%.

Question: For `CC(C)CC(NC(=O)C1CCC(=O)N1C(=O)OCc1ccccc1)C(=O)NC(Cc1ccccc1)C(N)=O` (stereo unspecified), which “activity change, negative = inhibition” value is on record?
Answer: The value was inactive: 6.91%.

Question: With `C=CCOc1ccc(C(=O)Nc2ccccc2C(=O)N2CCCC2)cc1` as the molecule, how does the Potency read?
Answer: The Potency was inconclusive: 5.22 µM [inhibitor, partial curve].

Question: For `COc1ccc2c(c1)c1nnc(SCC(=O)Nc3ccccc3F)nc1n2C`, which Potency is on record?
Answer: Its Potency is inconclusive: 13.1 µM [inhibitor, partial curve, poor fit].

Question: With `O=C(C1CCC(CNS(=O)(=O)c2cccc3nsnc23)CC1)N1CC=C(c2ccccc2)CC1` (stereo unspecified) as the molecule, how does the Potency read?
Answer: The Potency was inconclusive: 2.94 µM [inhibitor, full curve].

Question: With `Cc1ccc(Nc2nc3ccccc3n3cnnc23)cc1C` as the molecule, how does the “activity change, negative = inhibition” value read?
Answer: The value was inactive: -0.231%.

Question: With `NC(=S)N/N=C/c1ccccc1OC(=O)/C=C/c1ccccc1` as the molecule, how does the Potency read?
Answer: The Potency was inconclusive: 1.17 µM [inhibitor, partial curve, poor fit].

Question: Which Potency does the source give for `C=CCn1c(SCc2ccccc2Cl)nnc1-c1sc2nc(C)cc(C)c2c1N` here?
Answer: Its Potency is inconclusive: 2.94 µM [inhibitor, partial curve].

Question: For `CCN1CCN(c2cc(C)c3cc(NC(=O)CCC(=O)Nc4ccc(OC)cc4OC)ccc3n2)CC1`, which Potency is on record?
Answer: Its Potency is inconclusive: 18.5 µM [inhibitor, single point].

Question: For `NC(=O)NC(=O)COC(=O)[C@H](Cc1ccccc1)NC(=O)c1cccs1`, which “activity change, negative = inhibition” value is on record?
Answer: Its value is inactive: -3.53%.

Question: For `CN(C)CCOC(=O)CCCCCCCCC(=O)OCCN(C)C`, which “activity change, negative = inhibition” value is on record?
Answer: The value was inactive: 130%.

Question: For `O=C(CN(C(=O)CNS(=O)(=O)c1ccccc1)C1CCCC1)NCc1ccco1`, which Potency is on record?
Answer: Its Potency is inconclusive: 10.4 µM [inhibitor, single point].

Question: With `CCNC(=S)NC1CC2CCC(C1)N2Cc1ccccc1` (stereo unspecified) as the molecule, how does the Potency read?
Answer: The Potency was inconclusive: 4.15 µM [inhibitor, single point].

Question: Which “activity change, negative = inhibition” value does the source give for `CC(=O)c1cccc(NC(=S)NC2CCCCCCC2)c1` here?
Answer: The value was inactive: -15.4%.

Question: With `CN(C)C(CNC(=O)c1cccs1)c1ccco1` (stereo unspecified) as the molecule, how does the “activity change, negative = inhibition” value read?
Answer: The value was inactive: -11.1%.

Question: Which “activity change, negative = inhibition” value does the source give for `CCC(C)N(C(=O)COc1ccc(Br)cc1C=O)C1CCS(=O)(=O)C1` (stereo unspecified) here?
Answer: The value was inactive: 7.47%.

Question: With `COC(=O)Cc1cc(=O)n2[nH]c(C)nc2n1` as the molecule, how does the Potency read?
Answer: Its Potency is inconclusive: 18.5 µM [inhibitor, single point].

Question: Which Potency does the source give for `C[C@H]1[C@H]2c3nc4ccccc4n3C[C@H]1ON2C1CCCCC1` here?
Answer: Its Potency is inconclusive: 18.5 µM [inhibitor, single point].
